PubChem BioAssay AID493014 (National Center for Advancing Translational Sciences (NCATS), 2011)
About 170 (0.05%) of roughly 340,000 compounds were called active. Inconclusive results, whose numbers are uncertain, are shown with a selection of clear calls. Calls follow the shape of the dose curve; as a rule, active = well fitted inhibition curve with a large enough effect in the signal ratio, with a control signal flat (not every such curve was filed as active); inconclusive = small, poorly fitted or top-dose-only effect, or effect the other way, or a change in a side signal; inactive = flat fitted curve, though single readings scatter; the % refers to the signal ratio. Potencies of inconclusive entries are doubtful fits and often do not repeat.

Assay: qHTS Assay to Find Inhibitors of Chronic Active B-Cell Receptor Signaling;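 as to activity change, negative = inhibition: plate controls were basal doxycycline-induced cells for no effect and cells given 10 µM MG132 for full effect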
Settings: ABC-DLBCL IkBa-CBG/CBR reporter, luminescence ratio (green luciferase fused to IkBa over red control in TMD8 lymphoma cells), 4 h; activity change, negative = inhibition: at 46.1 µM (top of the series) unless noted
Outline: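 TMD8 ABC-DLBCL cells carrying doxycycline-inducible green luciferase fused to IkappaBalpha plus unfused red luciferase were exposed to compounds (up to 46 uM) for 4 hrs at 37C. Activity came from the overlap-corrected green/red luminescence ratio.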
Potency is read from the fitted curve at half-maximal effect.

Row | Structure (SMILES) | activity change, negative = inhibition | Potency
1 | O=C(CCc1nc2ccccc2[nH]1)Nc1ccccc1 | inconclusive: -5.14% | 
2 | CCCCCCCCCCCCCCCC[n+]1cccc2ccccc21 | inconclusive: 6.82% | 
3 | COCC(=O)Nc1nnc(Cc2ccc(OC)c(OC)c2)s1 | inconclusive: 4.32% | 
4 | O=C(COC(=O)C12CC3CC(CC(O)(C3)C1)C2)Nc1ccc(OC(F)F)cc1 | inactive | 
5 | CCOC(=O)c1ccc(CN(Cc2ccc(OC)cc2)S(=O)(=O)c2cccc(C(F)(F)F)c2)cc1 | inactive | 
6 | COc1ccc(Cl)cc1NC(=S)NCc1cccs1 | inconclusive: -10% | 
7 | Cc1nn(-c2ccccc2)c(C)c1NC(=O)COC(=O)c1ccccc1 | inactive | 
8 | CCOC(=O)C1CCN(S(=O)(=O)c2c(C)n[nH]c2C)CC1 | inconclusive: -1.2% | 
9 | Clc1ccc(/C=C\c2nccc3c2[nH]c2ccccc23)cc1 | inconclusive: 22.7% | 
10 | COC(=O)c1ccc(NS(=O)(=O)c2ccc(Cl)cc2)o1 | inactive | 
11 | COc1cc(OC)c(OC)cc1CNc1cc(C)ccc1OC | inconclusive: 6.05% | 
12 | CC(C)C(=O)N1N=C2CCCCC2C1(O)C(F)(F)F (stereo not given) | inconclusive: 7.67% | 
13 | Cc1ccc(S(=O)(=O)c2nnn3c2nc(NC2CCN(Cc4ccccc4)CC2)c2ccccc23)cc1C | inactive | 
14 | CC1=C[C@H]2OC(=O)[C@@H](C)[C@H]2C[C@@H]2[C@H]1C[C@@H](O)[C@@]2(C)O | inconclusive: 8.45% | 
15 | Cc1cc(NC(=O)CSc2ccc(-c3cccc([N+](=O)[O-])c3)nn2)no1 | inactive | 
16 | Cc1nc2ccc(NC(=O)Cc3ccccc3F)cc2s1 | inconclusive: -0.338% | 
17 | Cc1c(CCC(=O)O)c(=O)oc2cc3occ(-c4ccc(Cl)cc4)c3cc12 | inconclusive: -1.67% | 
18 | O=c1[nH]c(=S)[nH]c2nc(-c3cccs3)cc(C(F)(F)F)c12 | inconclusive: -1.71% | 
19 | CN(C)S(=O)(=O)c1ccc(-n2cccc2)cc1 | inconclusive: 0.507% | 
20 | CCOc1ccc(N(C)S(=O)(=O)c2ccc(-c3cc(C)no3)s2)cc1 |  | inconclusive: 28.2 µM [falling, single point]
21 | COc1ccc(N(C(=O)c2ccco2)C(C(=O)NC2CCCC2)c2ccc(OC)c(OC)c2)cc1 (stereo not given) | inactive | 
22 | COc1ccc(NS(=O)(=O)c2ccc3oc(SCc4ccc(F)cc4)nc3c2)cc1 | inactive | 

Structures listed so far with an aryl methoxy group (six):
Row | Structure (SMILES) | activity change, negative = inhibition | Potency
3 | COCC(=O)Nc1nnc(Cc2ccc(OC)c(OC)c2)s1 | inconclusive: 4.32% | 
5 | CCOC(=O)c1ccc(CN(Cc2ccc(OC)cc2)S(=O)(=O)c2cccc(C(F)(F)F)c2)cc1 | inactive | 
6 | COc1ccc(Cl)cc1NC(=S)NCc1cccs1 | inconclusive: -10% | 
11 | COc1cc(OC)c(OC)cc1CNc1cc(C)ccc1OC | inconclusive: 6.05% | 
21 | COc1ccc(N(C(=O)c2ccco2)C(C(=O)NC2CCCC2)c2ccc(OC)c(OC)c2)cc1 (stereo not given) | inactive | 
22 | COc1ccc(NS(=O)(=O)c2ccc3oc(SCc4ccc(F)cc4)nc3c2)cc1 | inactive | 

(further entries)

Row | Structure (SMILES) | activity change, negative = inhibition | Potency
23 | CCCn1c(/C=C/c2ccccc2)nc2ccccc21 | inactive | 
24 | Cc1ccc(NC(=O)Nc2cccc(C(F)(F)F)c2)nc1 | inconclusive: 10% | 
25 | CCOC(=O)c1c(-c2cccs2)csc1NC(=O)C(C)(C)C | inconclusive: 11.1% | 
26 | Cc1cc(C(=O)N2CCc3c([nH]c4ccccc34)C2c2cccc(Cl)c2)nn1C (stereo not given) |  | inconclusive: 0.562 µM [falling, full curve, poor fit]
27 | CCOC(=O)c1cc2sccc2n1CC(=O)N1CCCC1 | inconclusive: 7% | 
28 | COc1ccc(C2Oc3ccccc3N2C(C)=O)cc1 (stereo not given) |  | inconclusive: 35.5 µM [falling, single point]
29 | Cc1ccc(S(=O)(=O)CNC(=O)c2ccccc2)cc1 | inconclusive: 1.6% | 
30 | COCCNC(=S)N/N=C(\C)c1ccc(Cl)c(Cl)c1Cl |  | inconclusive: 25.1 µM [cytotoxic, partial curve]
31 | COc1nc(N(CC(N)=O)S(=O)(=O)c2ccccc2)nc(C)c1Cl | inconclusive: -1.46% | 
32 | O=C1C2CC=CCC2C(=O)N1c1n[nH]c(-c2ccccc2)n1 (stereo not given) |  | inconclusive: 18.4 µM [falling, partial curve]
33 | CC(C)N1CCc2c(sc(NC(=O)c3ccc(S(=O)(=O)N4CCCCC4C)cc3)c2C(N)=O)C1 (stereo not given) | inactive | 
34 | Clc1nc(NCc2ccco2)nc(N2CCCCC2)n1 | inactive | 
35 | COc1ccc(CCN2Cc3c(cccc3[N+](=O)[O-])C2=O)cc1OC | inconclusive: 0.593% | 
36 | COc1ccccc1NC(=O)c1ccc(NS(C)(=O)=O)cc1 | inconclusive: 1.61% | 
37 | COc1ccc(OC)c(NC(=O)C2CCCN2C(=O)OCc2ccccc2)c1 (stereo not given) | inconclusive: -7.5% | 
38 | O=C(Nc1ccc(Br)cc1)c1cccc(NC(=O)C2C3CC4OC(=O)C2C4C3)c1 (stereo not given) |  | inconclusive: 2.59 µM [rising, full curve]
39 | COCc1ccc2oc(C(=O)O)cc2c1 | inactive | 
40 | Cc1nn(-c2ccccc2)c(N)c1Sc1ccc([N+](=O)[O-])cc1 | inconclusive: -8.59% | 
41 | Cc1noc(NS(=O)(=O)c2ccc(NC(=O)CSc3nc4c(cc3C#N)CCCCC4)cc2)c1C | inconclusive: 4.39% | 
42 | C/C(=N\NC(=S)NCCc1ccccc1)c1ccc(C)cc1 | inactive | 
43 | O=C(NCCc1ccc(Cl)cc1)C(=O)NCC(c1ccco1)S(=O)(=O)c1ccccc1 (stereo not given) |  | inconclusive: 11.2 µM [falling, partial curve, poor fit]
44 | O=C(NCc1ccco1)c1ccc2c(=O)n(Cc3ccco3)c(SCC(=O)N3CCCC3)nc2c1 | inconclusive: 8.49% | 

Row | Structure (SMILES) | activity change, negative = inhibition | Potency
45 | COc1ccc(-n2c(=O)c3ccccc3c3ccccc3c2=O)c(OC)c1 |  | inconclusive: 6.51 µM [falling, single point]
46 | Cc1ccc(NC(=O)C2(c3ccccc3)CCOCC2)cc1 | inconclusive: 11.9% | 
47 | CC1CN(C(=O)COC(=O)c2cnc(Cl)c(Cl)c2)CC(C)O1 (stereo not given) | inactive | 
48 | Cc1cc(NC(=O)CSC2=NS(=O)(=O)c3cc(Cl)ccc3N2)no1 |  | inconclusive: 25.9 µM [falling, single point]
49 | CC(C)=NNc1nc(-c2ccccc2)c(C)s1 | inconclusive: 6.58% | 
50 | CCC(C)(C)C1CCC(=NNC(=O)c2ccc(Br)o2)CC1 (stereo not given) | inconclusive: -10.9% | 
51 | CCc1cccc(Nc2cc(C)nc3ncnn23)c1 | inconclusive: -1.66% | 
52 | Cc1ccc(NC(=O)CC2Oc3ccccc3NC2=O)c(C)c1 (stereo not given) |  | inconclusive: 20.6 µM [falling, partial curve]
53 | O=[N+]([O-])c1ccc(/C=N/n2c(-c3cccnc3)n[nH]c2=S)cc1 | inactive | 
54 | O=C1C(Cc2ccccc2)Nc2ncnc(N3CCc4ccccc4C3)c2N1Cc1ccccc1 (stereo not given) | inactive | 
55 | CC(=O)Oc1ccc2ccccc2c1C(NC(=O)C(C)C)c1cccc([N+](=O)[O-])c1 (stereo not given) | inconclusive: 3.38% | 
56 | Cc1cc(=O)oc2cc(OCc3ccc(C(=O)N4CCN(c5ccccc5)CC4)cc3)ccc12 | inactive | 
57 | Cc1ccc(N=Nc2c(C)[nH]n(C(N)=S)c2=O)cc1 |  | inconclusive: 25.1 µM [cytotoxic, partial curve]
58 | CCc1ccc(OCC(=O)N2CC(C(N)=O)Oc3ccccc32)cc1 (stereo not given) | inconclusive: -0.666% | 
59 | CN(C)C(CNC(=O)c1cccc(S(=O)(=O)N(C)C)c1)c1ccccc1 (stereo not given) | inactive | 
60 | CN(C)c1ccc(-c2nc3ccccc3n2C)cc1 |  | inconclusive: 22.4 µM [falling, single point]
61 | Cc1cc(Cl)cc(Br)c1OCCCNCC(C)O (stereo not given) | inconclusive: -17.7% | 
62 | COc1ccc(S(=O)(=O)NC(C)C)cc1-n1cnnn1 | inconclusive: 6.89% | 
63 | O=C(C(Cc1ccccc1)N1C(=O)c2ccccc2C1=O)N1c2ccccc2CCc2ccccc21 (stereo not given) | inconclusive: 1.03% | 
64 | Cc1nn(-c2ccccn2)c(N)c1N=O | inconclusive: -5.96% | 
65 | Cc1cccc(Nc2nc(NCc3ccco3)nc(N3CCOCC3)n2)c1 | inconclusive: 1.51% | 
66 | O=C(O)c1ccccc1CSc1nc2ccccc2[nH]1 |  | inconclusive: 20 µM [falling, partial curve, poor fit]

Row | Structure (SMILES) | activity change, negative = inhibition | Potency
67 | O=C(Cc1ccccc1)Nc1ccc(NC(=O)c2cccs2)cc1Cl | inconclusive: -6.53% | 
68 | Oc1cc(-c2ccccc2)c2ccccc2c1 | inconclusive: 0.551% | 
69 | CCOC(=O)Cc1csc(NC(=O)Nc2ccc(F)cc2)n1 | inconclusive: -1.53% | 
70 | CCOc1ccc(OCC)c(NC(=O)CSc2nc3ccccc3c(=O)n2C)c1 | inactive | 
71 | COc1ccc(NC(=S)NC(NC(=O)c2cccc(Cl)c2)C(Cl)(Cl)Cl)c([N+](=O)[O-])c1 (stereo not given) |  | inconclusive: 16.4 µM [rising, single point]
72 | COC(=O)COc1ccc2c(=O)c(-c3ccccc3OC)coc2c1 | inconclusive: -15% | 
73 | O=C(Nc1ccc(/C=C/c2nc3ccccc3o2)cc1)c1c(F)cccc1F | inconclusive: -0.0041% | 
74 | CC(=O)Nc1ncc(Cc2ccc(Cl)cc2Cl)s1 | inconclusive: -1.38% | 
75 | Nc1c(C(=O)Nc2ccc(Cl)cc2)oc2ccccc12 |  | inconclusive: 25.1 µM [falling, single point]
76 | CCCc1nc(SCC(=O)NNC(=O)c2ccc(OC)cc2)c2ccccc2n1 |  | inconclusive: 3.16 µM [falling, partial curve, poor fit]
77 | O=C(NC(=S)NCc1cccnc1)c1ccccc1F | inactive | 
78 | NS(=O)(=O)c1ccc(CCNC(=O)COC(=O)C2CCCN2C(=O)c2cccs2)cc1 (stereo not given) | inconclusive: 0.0453% | 
79 | CCN1C(=O)/C(=C/N2CCc3ccccc32)SC1=S | inconclusive: 1.9% | 
80 | CCOc1ccc2oc(C(=O)OC(C(=O)NC(N)=O)C(C)C)c(C)c2c1 (stereo not given) | inconclusive: 13.3% | 
81 | C=CCOC(=O)C(=O)/C=C/c1csc2ccccc12 |  | inconclusive: 17.8 µM [rising, partial curve, poor fit]
82 | O=C(/C=C/c1ccco1)Nc1ccccc1C(=O)O |  | inconclusive: 0.708 µM [rising, partial curve, poor fit]
83 | O=C(CN1CCN(c2ccccn2)CC1)Nc1ccc(Oc2ccccc2)cc1 | inconclusive: -0.443% | 
84 | COc1ccc(C=O)cc1COc1ccc(F)cc1F | inconclusive: 2.76% | 
85 | NC(=O)c1oc2ccccc2c1NC(=O)c1ccc(F)cc1 | inconclusive: 5.46% | 
